The other results are listed elsewhere or left out.
Legend:
Experiment in all cases: log2 fold change, soluble protein after heating vs DMSO (PISA); higher = thermal stabilisation; K562 lysate, 10 uM; active = over 0.2 and 3.5 SD of the protein, either way, in both replicates (recomputed)
lapatinib = compound: CS(=O)(=O)CCNCc1ccc(-c2ccc3ncnc(Nc4ccc(OCc5cccc(F)c5)c(Cl)c4)c3c2)o1 [lapatinib]
Summary of the method: (§1)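 Following dounce homogenisation of K562 pellets in PBS pH 7.4 with 1 mM MgCl2, crude extract at 1 mg/mL protein was incubated for 30 min with 10 μM compound. Aliquots were then heated for 3 min over 48°C-58°C and pooled, NP-40 was added to 0.5% at 4°C, and soluble protein was recovered as the supernatant at 21,000xg for 90 min. Channel-sum-equalised TMTpro 16plex LC-MS/MS quantified this protein. Each value, from duplicates, is a log-two fold change in thermal stability relative to solvent controls.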

Protein sequences, listed by entry. Tags and fused reporters are not part of them. Lines headed by an entry give the natural chain unless they say otherwise; changes in a name come on top.
UniProt Q9H4H8: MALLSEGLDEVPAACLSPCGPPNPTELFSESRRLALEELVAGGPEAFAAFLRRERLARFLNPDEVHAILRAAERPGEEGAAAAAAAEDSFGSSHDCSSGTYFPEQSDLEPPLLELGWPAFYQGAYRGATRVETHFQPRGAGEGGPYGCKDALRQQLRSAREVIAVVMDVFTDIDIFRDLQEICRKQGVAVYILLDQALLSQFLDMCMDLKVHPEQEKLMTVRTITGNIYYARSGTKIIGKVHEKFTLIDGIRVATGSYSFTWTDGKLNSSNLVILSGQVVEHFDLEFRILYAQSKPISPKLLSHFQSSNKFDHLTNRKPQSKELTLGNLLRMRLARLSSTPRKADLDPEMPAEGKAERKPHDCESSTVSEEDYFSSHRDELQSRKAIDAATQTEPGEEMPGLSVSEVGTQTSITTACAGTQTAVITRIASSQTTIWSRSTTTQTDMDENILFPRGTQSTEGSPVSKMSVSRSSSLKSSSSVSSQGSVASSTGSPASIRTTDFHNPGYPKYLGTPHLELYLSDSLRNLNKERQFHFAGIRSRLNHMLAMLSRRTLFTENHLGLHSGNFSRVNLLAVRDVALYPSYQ
UniProt P10768: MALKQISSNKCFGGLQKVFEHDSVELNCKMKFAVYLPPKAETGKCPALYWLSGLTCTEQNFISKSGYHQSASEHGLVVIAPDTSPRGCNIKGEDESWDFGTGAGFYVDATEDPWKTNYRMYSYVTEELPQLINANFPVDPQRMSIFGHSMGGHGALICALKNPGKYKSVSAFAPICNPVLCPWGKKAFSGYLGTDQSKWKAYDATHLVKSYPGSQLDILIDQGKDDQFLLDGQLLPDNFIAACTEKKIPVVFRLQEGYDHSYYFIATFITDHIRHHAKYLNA
UniProt Q7Z2K6: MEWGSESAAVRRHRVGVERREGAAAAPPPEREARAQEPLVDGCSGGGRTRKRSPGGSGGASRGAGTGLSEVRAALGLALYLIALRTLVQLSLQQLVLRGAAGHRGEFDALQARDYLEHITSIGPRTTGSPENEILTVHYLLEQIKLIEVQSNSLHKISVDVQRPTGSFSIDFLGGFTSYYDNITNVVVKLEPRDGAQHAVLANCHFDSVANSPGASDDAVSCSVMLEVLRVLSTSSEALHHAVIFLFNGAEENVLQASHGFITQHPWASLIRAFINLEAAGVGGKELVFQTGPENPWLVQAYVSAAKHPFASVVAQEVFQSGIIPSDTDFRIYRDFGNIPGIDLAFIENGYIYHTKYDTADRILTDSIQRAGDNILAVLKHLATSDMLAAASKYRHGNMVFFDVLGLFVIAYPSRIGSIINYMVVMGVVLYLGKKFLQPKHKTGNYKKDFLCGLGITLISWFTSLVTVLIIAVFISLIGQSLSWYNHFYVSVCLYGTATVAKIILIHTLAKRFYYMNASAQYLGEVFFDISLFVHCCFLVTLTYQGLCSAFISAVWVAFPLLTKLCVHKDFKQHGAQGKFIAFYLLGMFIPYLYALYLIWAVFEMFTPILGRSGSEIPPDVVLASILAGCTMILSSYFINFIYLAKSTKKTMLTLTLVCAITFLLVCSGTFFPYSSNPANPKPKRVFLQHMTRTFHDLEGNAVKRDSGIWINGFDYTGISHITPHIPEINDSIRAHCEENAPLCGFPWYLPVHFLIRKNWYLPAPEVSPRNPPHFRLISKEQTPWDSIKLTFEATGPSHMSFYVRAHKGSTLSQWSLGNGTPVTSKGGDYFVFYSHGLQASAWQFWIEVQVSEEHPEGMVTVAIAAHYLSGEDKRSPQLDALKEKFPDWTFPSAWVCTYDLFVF
UniProt Q8TAG9: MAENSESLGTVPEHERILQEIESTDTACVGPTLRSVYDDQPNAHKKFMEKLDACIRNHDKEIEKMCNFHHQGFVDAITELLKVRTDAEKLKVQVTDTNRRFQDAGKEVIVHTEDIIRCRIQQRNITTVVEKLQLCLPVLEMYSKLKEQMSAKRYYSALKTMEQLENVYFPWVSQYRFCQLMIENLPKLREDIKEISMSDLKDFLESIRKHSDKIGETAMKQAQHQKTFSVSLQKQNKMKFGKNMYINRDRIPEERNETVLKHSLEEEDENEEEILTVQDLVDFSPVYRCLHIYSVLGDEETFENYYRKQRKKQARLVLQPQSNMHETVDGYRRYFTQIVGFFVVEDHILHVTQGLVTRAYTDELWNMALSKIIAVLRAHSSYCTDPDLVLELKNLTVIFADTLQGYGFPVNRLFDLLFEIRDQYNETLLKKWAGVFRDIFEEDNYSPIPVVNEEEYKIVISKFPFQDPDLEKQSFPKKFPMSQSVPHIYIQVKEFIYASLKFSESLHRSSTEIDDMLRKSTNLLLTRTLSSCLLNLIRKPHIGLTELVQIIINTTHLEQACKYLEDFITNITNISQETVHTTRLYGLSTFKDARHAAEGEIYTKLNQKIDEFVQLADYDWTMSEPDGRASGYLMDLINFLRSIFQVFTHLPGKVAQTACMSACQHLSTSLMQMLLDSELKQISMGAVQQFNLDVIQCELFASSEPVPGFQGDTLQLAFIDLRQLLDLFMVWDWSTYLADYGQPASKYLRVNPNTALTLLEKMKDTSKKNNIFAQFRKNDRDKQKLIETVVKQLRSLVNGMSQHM
UniProt Q01780: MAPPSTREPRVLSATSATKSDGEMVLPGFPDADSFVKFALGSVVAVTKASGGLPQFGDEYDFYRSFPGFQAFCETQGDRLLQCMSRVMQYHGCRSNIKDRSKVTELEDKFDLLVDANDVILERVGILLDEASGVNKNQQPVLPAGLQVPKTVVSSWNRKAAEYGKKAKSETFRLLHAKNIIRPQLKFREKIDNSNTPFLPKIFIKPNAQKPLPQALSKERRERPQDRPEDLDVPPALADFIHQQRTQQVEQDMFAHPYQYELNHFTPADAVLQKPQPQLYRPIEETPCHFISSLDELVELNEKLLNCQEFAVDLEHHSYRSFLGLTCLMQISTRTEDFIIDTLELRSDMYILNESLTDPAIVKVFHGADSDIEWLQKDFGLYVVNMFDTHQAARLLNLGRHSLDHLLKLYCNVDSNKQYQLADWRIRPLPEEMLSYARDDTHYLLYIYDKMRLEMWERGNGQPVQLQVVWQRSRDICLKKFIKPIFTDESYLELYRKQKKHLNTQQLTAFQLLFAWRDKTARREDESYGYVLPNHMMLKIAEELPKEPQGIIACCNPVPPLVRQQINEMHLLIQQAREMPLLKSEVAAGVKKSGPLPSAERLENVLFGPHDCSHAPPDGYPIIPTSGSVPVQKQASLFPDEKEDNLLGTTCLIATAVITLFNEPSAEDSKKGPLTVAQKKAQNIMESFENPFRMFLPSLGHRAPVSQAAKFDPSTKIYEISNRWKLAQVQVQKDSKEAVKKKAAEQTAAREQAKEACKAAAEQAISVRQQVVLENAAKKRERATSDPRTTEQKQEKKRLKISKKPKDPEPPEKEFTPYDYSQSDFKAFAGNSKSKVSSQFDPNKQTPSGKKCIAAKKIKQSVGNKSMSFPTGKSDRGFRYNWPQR
UniProt Q96HE7: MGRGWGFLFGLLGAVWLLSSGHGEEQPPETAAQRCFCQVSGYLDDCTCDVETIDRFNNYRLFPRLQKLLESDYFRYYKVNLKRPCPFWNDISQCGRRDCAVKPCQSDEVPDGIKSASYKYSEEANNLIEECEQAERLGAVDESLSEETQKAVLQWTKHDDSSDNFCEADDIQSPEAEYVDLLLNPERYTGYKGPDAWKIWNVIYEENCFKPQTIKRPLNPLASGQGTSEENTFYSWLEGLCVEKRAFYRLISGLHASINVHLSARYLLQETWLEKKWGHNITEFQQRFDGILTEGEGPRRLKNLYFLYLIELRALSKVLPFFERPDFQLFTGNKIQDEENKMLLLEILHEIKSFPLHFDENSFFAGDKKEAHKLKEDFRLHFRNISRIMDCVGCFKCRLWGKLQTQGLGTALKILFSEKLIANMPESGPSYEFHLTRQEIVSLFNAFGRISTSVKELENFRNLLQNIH

pictilisib = compound: CS(=O)(=O)N1CCN(Cc2cc3nc(-c4cccc5[nH]ncc45)nc(N4CCOCC4)c3s2)CC1 [pictilisib]
Summary of the method: as §1

crizotinib = compound: C[C@@H](Oc1cc(-c2cnn(C3CCNCC3)c2)cnc1N)c1c(Cl)ccc(F)c1Cl [crizotinib]
Summary of the method: as §1

[1] = compound: C[C@H](C1=CC=C(C=C1)C(=O)NC2=C3C=CNC3=NC=C2)N
Summary of the method: as §1

duvelisib = compound: C[C@H](Nc1ncnc2nc[nH]c12)c1cc2cccc(Cl)c2c(=O)n1-c1ccccc1 [duvelisib]
Summary of the method: as §1

gandotinib = compound: Cc1cc(Nc2cc(CN3CCOCC3)c3nc(C)c(Cc4ccc(Cl)cc4F)n3n2)n[nH]1 [gandotinib]
Summary of the method: as §1

tozasertib = compound: Cc1cc(Nc2cc(N3CCN(C)CC3)nc(Sc3ccc(NC(=O)C4CC4)cc3)n2)n[nH]1 [tozasertib]
Summary of the method: as §1

doramapimod = compound: Cc1ccc(-n2nc(C(C)(C)C)cc2NC(=O)Nc2ccc(OCCN3CCOCC3)c3ccccc23)cc1 [doramapimod]
Summary of the method: as §1

bafetinib = compound: Cc1ccc(NC(=O)c2ccc(CN3CC[C@H](N(C)C)C3)c(C(F)(F)F)c2)cc1Nc1nccc(-c2cncnc2)n1 [bafetinib]
Summary of the method: as §1

[2] = compound: Cc1cccc(CC(=O)N2CCc3c2ccc(-c2cn(C)c4ncnc(N)c24)c3F)n1
Summary of the method: as §1

nilotinib = compound: Cc1cn(-c2cc(NC(=O)c3ccc(C)c(Nc4nccc(-c5cccnc5)n4)c3)cc(C(F)(F)F)c2)cn1 [nilotinib]
Summary of the method: as §1

[3] = compound: Cc1nc(Nc2n[nH]c3c2CN(C(=O)N[C@H](CN(C)C)c2ccccc2)C3(C)C)c2sccc2n1
Summary of the method: as §1

dasatinib = compound: Cc1nc(Nc2ncc(C(=O)Nc3c(C)cccc3Cl)s2)cc(N2CCN(CCO)CC2)n1 [dasatinib]
Summary of the method: as §1

[4] = compound: Cc1ncc(-c2ccnc(Nc3ccc(S(C)(=O)=O)cc3)n2)n1C(C)C
Summary of the method: as §1

[5] = compound: Cn1cc(-c2ccc3c(c2)CCN3C(=O)Cc2cccc(C(F)(F)F)c2)c2c(N)ncnc21
Summary of the method: as §1

quisinostat = compound: Cn1cc(CNCC2CCN(c3ncc(C(=O)NO)cn3)CC2)c2ccccc21 [quisinostat]
Summary of the method: as §1

tipifarnib = compound: Cn1cncc1[C@@](N)(c1ccc(Cl)cc1)c1ccc2c(c1)c(-c1cccc(Cl)c1)cc(=O)n2C [tipifarnib]
Summary of the method: as §1

[6] = compound: NC(=O)Nc1cc(-c2cccc(F)c2)sc1C(=O)N[C@H]1CCCNC1
Summary of the method: as §1

[7] = compound: NC(=O)c1cnc(N[C@@H]2CCCC[C@@H]2N)nc1Nc1cccc(-n2nccn2)c1
Summary of the method: as §1

[8] = compound: NC1(c2ccc(-c3nc4ccn5c(=O)[nH]nc5c4cc3-c3ccccc3)cc2)CCC1
Summary of the method: as §1

Measured: log2 fold change

FAM83D (UniProt Q9H4H8)
inactive: lapatinib -0.01 | pictilisib -0.024 | crizotinib -0.026 | [1] -0.021 | duvelisib -0.002 | gandotinib -0.018 | tozasertib -0.038 | doramapimod 0.009 | bafetinib -0.116 | [2] 0.031 | nilotinib -0.042 | [3] 0.004 | dasatinib -0.026 | [4] 0.008 | [5] -0.033 | quisinostat -0.061 | tipifarnib -0.02 | [6] -0.019 | [7] 0.05 | [8] 0.01

ESYT2 (UniProt H7BXI1)
inactive: lapatinib -0.008 | pictilisib 0.01 | crizotinib -0.039 | [1] 0.089 | duvelisib 0.018 | gandotinib -0.073 | tozasertib 0.063 | doramapimod 0.018 | bafetinib -0.115 | [2] 0.002 | nilotinib 0.016 | [3] -0.017 | dasatinib -0.01 | [4] 0.037 | [5] 0.02 | quisinostat 0.027 | tipifarnib 0.009 | [6] -0.015 | [7] -0.031 | [8] -0.051

ESD (UniProt P10768)
inactive: lapatinib 0.056 | pictilisib -0.016 | crizotinib -0.002 | [1] -0.012 | duvelisib -0.007 | gandotinib 0.02 | tozasertib -0.009 | doramapimod -0.014 | bafetinib 0.029 | [2] -0.04 | nilotinib 0.002 | [3] 0.046 | dasatinib -0.011 | [4] 0.033 | [5] 0.01 | quisinostat 0.065 | tipifarnib 0.007 | [6] -0.036 | [7] -0.017 | [8] -0.002

ERMP1 (UniProt Q7Z2K6)
inactive: lapatinib -0.006 | pictilisib -0.023 | crizotinib -0.014 | [1] -0.069 | duvelisib -0.036 | gandotinib 0.122 | tozasertib -0.008 | doramapimod -0.021 | bafetinib 0.019 | [2] 0.054 | nilotinib 0.049 | [3] -0.035 | dasatinib -0.006 | [4] 0.019 | [5] -0.011 | quisinostat -0.04 | tipifarnib -0.089 | [6] -0.002 | [7] -0.005 | [8] -0.021

EXOC6 (UniProt Q8TAG9)
inactive: lapatinib -0.017 | pictilisib -0.04 | crizotinib -0.121 | [1] -0.013 | duvelisib 0 | gandotinib -0.166 | tozasertib 0.029 | doramapimod 0.004 | bafetinib -0.059 | [2] 0.033 | nilotinib -0.002 | [3] 0.01 | dasatinib -0.063 | [4] 0.022 | [5] 0.064 | quisinostat -0.023 | tipifarnib -0.044 | [6] 0.068 | [7] 0.024 | [8] -0.064

ETF1 (UniProt P62495)
inactive: lapatinib -0.017 | pictilisib 0 | crizotinib -0.013 | [1] -0.002 | duvelisib 0.007 | gandotinib 0.01 | tozasertib -0.018 | doramapimod 0.022 | bafetinib -0.027 | [2] -0.006 | nilotinib -0.014 | [3] -0.015 | dasatinib -0.006 | [4] -0.018 | [5] -0.017 | quisinostat -0.018 | tipifarnib 0 | [6] -0.006 | [7] 0.005 | [8] -0.001

EXOSC10 (UniProt Q01780)
inactive: lapatinib -0.019 | pictilisib -0.017 | crizotinib -0.025 | [1] -0.004 | duvelisib 0.013 | gandotinib 0.047 | tozasertib -0.055 | doramapimod 0.003 | bafetinib 0.017 | [2] 0.069 | nilotinib 0.012 | [3] 0.002 | dasatinib 0.034 | [4] -0.001 | [5] -0.006 | quisinostat -0.05 | tipifarnib -0.016 | [6] 0.057 | [7] -0.002 | [8] -0.052

ERO1A (UniProt Q96HE7)
inactive: lapatinib 0.002 | pictilisib 0.013 | crizotinib -0.002 | [1] 0.043 | duvelisib -0.017 | gandotinib -0.054 | tozasertib 0.016 | doramapimod -0.005 | bafetinib 0.036 | [2] -0.05 | nilotinib 0.008 | [3] -0.012 | dasatinib 0.006 | [4] -0.027 | [5] 0.031 | quisinostat -0.03 | tipifarnib -0.007 | [6] 0.012 | [7] -0.01 | [8] 0.009

Reference: the supplement of paper PMC10849652
